These are yes or no findings as the source states them, for the method shown. In cells and extracts the contact can be indirect. Binding can be weak; no strength is given. For some assays here: Where a sequence is shown, tags or fusion partners need not be part of it.

Test [1] has as its target protein phosphatase 1 (PP1), human (human (endogenous in human islets)). The test can be described thus: pull-down; microcystin capture assay: mitochondria of human islets (controls and patients with type 2 diabetes) solubilised in 6 mM CHAPS, 150 mM NaCl, 0.01 M sodium phosphate pH 7.2, 2 mM EDTA; incubated with microcystin beads (hold PP1) overnight at 4°C; bound proteins detected by Western ….

Test [2] concerns the target protein phosphatase 1 (PP1), mouse (mouse (endogenous in mouse β-cell lines and islets)). The experiment in a line: pull-down; microcystin capture assay: mitochondria of control, βIRKO or βIRKO+hIRB mouse β-cell lines, or of control or βIRKO mouse islets, solubilised in 6 mM CHAPS, 150 mM NaCl, 0.01 M sodium phosphate pH 7.2, 2 mM EDTA; incubated with microcystin beads (hold PP1) overnight at 4°C; bound proteins detected by Western blotting.

B1: pro-apoptotic protein BADS (BCL2-antagonist of cell death), human (protein, UniProt Q92934 1-168)
chain: MFQIPEFEPSEQEDSSSAERGLGPSPAGDGPSGSGKHHRQAPGLLWDASHQQEQPTSSSHHGGAGAVEIRSRHSSYPAGTEDDEGMGEEPSPFRGRSRSAPPNLWAAQRYGRELRRMSDEFVDSFKKGLPRPKSAGTATQMRQSSSWTRVFQSWWDRNLGRGSSAPSQ
As to B1, the binding result in test [1] was “binds”.

B2: WAVE1 (a protein kinase A scaffold protein), mouse (protein, UniProt Q8R5H6 1-559)
chain: MPLVKRNIDPRHLCHTALPRGIKNELECVTNISLANIIRQLSSLSKYAEDIFGELFNEAHSFSFRVNSLQERVDRLSVSVTQLDPKEEELSLQDITMRKAFRSSTIQDQQLFDRKTLPIPLQETYDVCEQPPPLNILTPYRDDGKEGLKFYTNPSYFFDLWKEKMLQDTEDKRKEKRKQKQKNLDRPHEPEKVPRAPHDRRREWQKLAQGPELAEDDADLLHKHIEVANGPASHYETRPQTYVDHMDGSYSLSALPFSQMSELLTRAEERVLVRPHEPPPPPPMHGAGDAKPTPTCISSATGLIENRPQSPAAGRTPVFVSPTPPPPPPPLPSALSTSSLRASMTSTPPPPVPPPPPPPATALQAPAVPPPPAPLQIAPGVLHPAPPPIAPPLVQPSPPVARAAPVCETVPVHPLPQGEVQGLPPPPPPPPLPPPGIRPSSPVAVAALAHPPSGLHPAPSTAPGPHAPLMPPSPPSQVLPASEPKRHPSTLPVISDARSVLLEAIRKGIQLRKVEEQREQEAKHERIENDVATILSRRIAVEYSDSEDDSEFDEVDWLE
Turning to B2, the binding result in test [2] was “binds”.

For the origin of these results see publication PMC2776992.
